Residue numbers refer to the chain shown, from its start. Results are given in words; binding and its absence hold for the method and conditions named. Binding seen in cells or lysates may run through a third protein. Tags and fused reporters may be left off the sequences shown.
Experiments:
[1] = molecular target: T1, HA-tagged FL SgK223 F1366A (MCF-10A SgK223 KO) (UniProt Q86YV5); test: co-IP; HA-tagged FL SgK223 WT or mutants expressed in MCF-10A SgK223 KO cells; immunoprecipitation with anti-HA, blot with anti-SgK269 for the endogenous protein
T1 sequence: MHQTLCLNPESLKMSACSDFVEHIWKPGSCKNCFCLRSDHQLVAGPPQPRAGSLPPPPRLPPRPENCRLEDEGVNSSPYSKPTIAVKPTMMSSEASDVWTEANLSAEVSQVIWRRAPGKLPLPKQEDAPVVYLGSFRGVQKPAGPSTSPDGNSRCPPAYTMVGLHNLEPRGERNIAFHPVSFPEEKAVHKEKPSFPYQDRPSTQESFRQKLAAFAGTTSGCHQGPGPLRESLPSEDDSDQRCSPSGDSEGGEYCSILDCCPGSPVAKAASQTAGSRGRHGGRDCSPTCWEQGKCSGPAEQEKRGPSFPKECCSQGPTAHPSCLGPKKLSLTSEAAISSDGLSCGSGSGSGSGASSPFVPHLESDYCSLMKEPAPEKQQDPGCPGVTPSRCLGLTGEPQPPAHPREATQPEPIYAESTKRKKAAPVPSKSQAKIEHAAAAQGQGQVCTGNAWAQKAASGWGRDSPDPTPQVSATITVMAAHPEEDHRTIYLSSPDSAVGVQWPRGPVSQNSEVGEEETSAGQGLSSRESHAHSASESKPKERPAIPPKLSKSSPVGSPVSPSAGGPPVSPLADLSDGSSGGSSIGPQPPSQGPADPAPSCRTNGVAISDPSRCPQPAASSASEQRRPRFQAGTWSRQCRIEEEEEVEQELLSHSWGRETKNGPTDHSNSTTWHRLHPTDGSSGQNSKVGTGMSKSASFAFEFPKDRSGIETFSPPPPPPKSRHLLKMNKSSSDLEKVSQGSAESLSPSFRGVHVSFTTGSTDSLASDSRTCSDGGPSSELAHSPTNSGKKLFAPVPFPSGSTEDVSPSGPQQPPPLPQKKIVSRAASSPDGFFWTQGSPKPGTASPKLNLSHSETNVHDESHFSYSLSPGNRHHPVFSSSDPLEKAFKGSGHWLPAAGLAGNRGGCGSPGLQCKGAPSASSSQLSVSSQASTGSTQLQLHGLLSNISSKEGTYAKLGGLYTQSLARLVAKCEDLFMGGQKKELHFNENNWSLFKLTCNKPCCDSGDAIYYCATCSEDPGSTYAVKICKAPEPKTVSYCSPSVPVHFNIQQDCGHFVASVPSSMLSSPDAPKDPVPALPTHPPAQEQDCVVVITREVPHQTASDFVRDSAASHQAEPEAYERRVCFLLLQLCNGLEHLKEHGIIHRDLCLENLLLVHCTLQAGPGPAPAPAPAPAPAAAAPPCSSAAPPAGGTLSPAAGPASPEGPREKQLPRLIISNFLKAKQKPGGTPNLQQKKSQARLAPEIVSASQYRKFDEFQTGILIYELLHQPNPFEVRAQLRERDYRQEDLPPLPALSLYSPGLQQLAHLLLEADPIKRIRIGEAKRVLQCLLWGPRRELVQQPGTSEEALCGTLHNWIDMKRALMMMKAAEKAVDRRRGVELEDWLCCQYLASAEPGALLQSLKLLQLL

Protein sequences, listed by entry. Tags and fused reporters are not part of them.
UniProt Q9H792: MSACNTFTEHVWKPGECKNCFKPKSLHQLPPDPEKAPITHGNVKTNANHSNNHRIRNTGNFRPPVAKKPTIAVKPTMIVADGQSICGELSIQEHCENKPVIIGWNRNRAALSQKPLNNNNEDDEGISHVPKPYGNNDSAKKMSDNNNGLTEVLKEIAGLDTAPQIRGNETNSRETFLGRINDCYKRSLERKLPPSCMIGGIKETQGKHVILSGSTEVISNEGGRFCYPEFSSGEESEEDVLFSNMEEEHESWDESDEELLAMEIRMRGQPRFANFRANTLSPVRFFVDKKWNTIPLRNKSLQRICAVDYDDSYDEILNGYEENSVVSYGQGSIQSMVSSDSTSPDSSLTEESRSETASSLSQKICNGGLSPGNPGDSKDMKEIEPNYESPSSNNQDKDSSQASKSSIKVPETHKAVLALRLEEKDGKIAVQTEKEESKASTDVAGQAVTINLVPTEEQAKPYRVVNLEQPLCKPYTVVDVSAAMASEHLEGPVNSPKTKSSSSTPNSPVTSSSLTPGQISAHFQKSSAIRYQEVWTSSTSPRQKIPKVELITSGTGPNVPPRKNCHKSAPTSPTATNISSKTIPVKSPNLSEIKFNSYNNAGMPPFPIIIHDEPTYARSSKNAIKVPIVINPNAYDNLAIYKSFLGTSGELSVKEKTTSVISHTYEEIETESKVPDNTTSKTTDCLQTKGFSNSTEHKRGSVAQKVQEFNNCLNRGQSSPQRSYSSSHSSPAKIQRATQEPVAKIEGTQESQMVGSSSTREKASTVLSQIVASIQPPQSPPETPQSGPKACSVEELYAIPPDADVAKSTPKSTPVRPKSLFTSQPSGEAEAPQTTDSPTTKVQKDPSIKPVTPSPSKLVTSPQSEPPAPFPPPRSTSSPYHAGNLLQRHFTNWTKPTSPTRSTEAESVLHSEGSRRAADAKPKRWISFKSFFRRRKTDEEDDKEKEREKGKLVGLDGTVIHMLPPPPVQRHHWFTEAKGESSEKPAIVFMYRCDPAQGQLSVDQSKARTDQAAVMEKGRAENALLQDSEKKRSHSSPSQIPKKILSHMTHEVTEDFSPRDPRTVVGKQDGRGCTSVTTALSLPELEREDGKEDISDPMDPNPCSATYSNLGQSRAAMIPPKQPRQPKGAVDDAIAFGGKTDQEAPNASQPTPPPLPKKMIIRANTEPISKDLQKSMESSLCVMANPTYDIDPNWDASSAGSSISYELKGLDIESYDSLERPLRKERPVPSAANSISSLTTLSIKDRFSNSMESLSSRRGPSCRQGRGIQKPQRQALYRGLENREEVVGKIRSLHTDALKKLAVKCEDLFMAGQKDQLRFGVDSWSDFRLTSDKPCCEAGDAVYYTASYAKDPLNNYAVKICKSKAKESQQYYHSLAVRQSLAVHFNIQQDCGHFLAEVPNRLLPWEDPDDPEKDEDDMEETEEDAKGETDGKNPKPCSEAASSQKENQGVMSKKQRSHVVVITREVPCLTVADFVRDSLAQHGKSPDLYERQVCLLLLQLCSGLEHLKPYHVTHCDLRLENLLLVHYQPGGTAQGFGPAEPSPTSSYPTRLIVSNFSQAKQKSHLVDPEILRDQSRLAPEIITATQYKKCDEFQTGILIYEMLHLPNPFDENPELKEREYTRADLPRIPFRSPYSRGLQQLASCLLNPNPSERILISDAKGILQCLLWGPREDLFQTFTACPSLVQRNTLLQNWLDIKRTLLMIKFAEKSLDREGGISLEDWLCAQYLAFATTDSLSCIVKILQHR

[2] = molecular target: T2, HA-tagged FL SgK223 L966A (MCF-10A SgK223 KO) (UniProt Q86YV5); test: as above
T2 sequence: T1 sequence with L966A, A1366F

binding [1]: no binding
binding [2]: no binding
Substance: endogenous FL SgK269-WT (from UniProt Q9H792 1-1746)

Reference: paper PMC5660093, “Structure of SgK223 pseudokinase reveals novel mechanisms of homotypic and heterotypic association” (Nature Communications, 2017)
